The values below come from patent publication US4100274A (Imperial Chemical Industries Limited, priority 1976, dated 1978).

The series is described as follows: general procedure: solution-phase peptide synthesis; azide method (t-butyl nitrite/HCl); dicyclohexylcarbodiimide/1-hydroxybenzotriaz. Conditions: coupling step.

For “L-Pyroglutamyl-L-histidyl-L-tryptophyl-L-serine methyl ester”, the step yield is on record as 70%.
